Reference: US20240050583A1, “PROTEIN-DRUG CONJUGATE AND SITE-SPECIFIC CONJUGATING METHOD” (HARBOUR BIOMED (SHANGHAI) CO., LTD, priority 2020, published 2024)

Assay: Molecular weight and coupling product components (DAR) by LC-MS
Conditions: coupling product without HIC purification, protein 4.1 mg/mL
From the text: In this example, liquid chromatography-mass spectrometry (LC-MS) was used to analyze the protein sample for molecular weight. Those skilled in the art can use different models of liquid chromatography (LC) and mass spectrometer (MS) to establish similar analytical methods according to the technical instructions and through experimental exploration. Only representative methods are listed in this example.
In certain specific embodiments, determination of the molecular weight of a protein sample required desaccharification on the sample to remove modifications such as saccharide chains, for example, the sample was processed with glycosidase PNGase F (NEB, #P0705L) at 37° C. for at least 4 h. For example, in all examples of the present invention, when the molecular weight of protein samples was determined, unless otherwise emphasized, the protein samples to be tested were subjected to desaccharification by the glycosidase PNGase F.
In certain specific embodiments, determination of the reduced molecular weight of a protein sample required reduction on the sample, for example, the sample was processed with […] dithiothreitol (DTT) at 37° C. for 10 min. For example, in all examples of the present invention, the samples after reduction were called reduced samples, and the samples without reduction were called non-reduced samples.
Buffer A was 0.1% formic acid FA dissolved in water, and buffer B was 0.1% formic acid FA dissolved in acetonitrile. Injection: about 1 μg; flow rate: 0.3 mL/min; and operation temperature: 80° C. When reduced samples were tested, buffer A and buffer B were mixed within 12 min to form a linear gradient: using 10-60% B for the first 8 min and 80% B for the last 4 min. When non-reduced samples were tested, buffer A and buffer B were mixed within 9 min to form a linear gradient: using 15-60% B for the first 6 min and 80% B for the last 3 min.
Buffer A was 0.1% formic acid FA dissolved in water, and buffer B was 0.1% formic acid FA dissolved in acetonitrile. Injection: about 10 μL; flow rate: 0.2-0.5 mL/min; and operation temperature: 80° C. […]

In the case of “PR006345: SIRPa-Fc fusion protein: ALX148 SIRPa variant fused with human IgG1 hinge and Fc, SEQ ID NO: 149”, the D2% (Experiment 1, TCEP 1.5 equivalents) is reported as 88%, the D2% (Experiment 2, TCEP 2.0 equivalents) is reported as 89% and the D2% (Experiment 3, TCEP 3.0 equivalents) is reported as 74%.
